Results are given in words; binding and its absence hold for the method and conditions named. Binding seen in cells or lysates may run through a third protein. Here binding means that the protein was enriched with, or labelled near, the bait; the list need not be complete.
Biological target: fat mass and obesity-associated protein (FTO), endogenous (human (endogenous in HEK 293 T and CFPAC-GM)) (UniProt Q9C0B1)
Assay: affinity purification with mass spectrometry; IP/MS of FTO from CFPAC-GM total protein; primary antibody overnight at 4 C, protein G Dynabeads 1 h at room temperature, full gel lane analysed, compared with an IgG group; hits co-analysed with GEO GSE80617

Amino acid sequences for entries named in this document (tags omitted).
UniProt Q93009: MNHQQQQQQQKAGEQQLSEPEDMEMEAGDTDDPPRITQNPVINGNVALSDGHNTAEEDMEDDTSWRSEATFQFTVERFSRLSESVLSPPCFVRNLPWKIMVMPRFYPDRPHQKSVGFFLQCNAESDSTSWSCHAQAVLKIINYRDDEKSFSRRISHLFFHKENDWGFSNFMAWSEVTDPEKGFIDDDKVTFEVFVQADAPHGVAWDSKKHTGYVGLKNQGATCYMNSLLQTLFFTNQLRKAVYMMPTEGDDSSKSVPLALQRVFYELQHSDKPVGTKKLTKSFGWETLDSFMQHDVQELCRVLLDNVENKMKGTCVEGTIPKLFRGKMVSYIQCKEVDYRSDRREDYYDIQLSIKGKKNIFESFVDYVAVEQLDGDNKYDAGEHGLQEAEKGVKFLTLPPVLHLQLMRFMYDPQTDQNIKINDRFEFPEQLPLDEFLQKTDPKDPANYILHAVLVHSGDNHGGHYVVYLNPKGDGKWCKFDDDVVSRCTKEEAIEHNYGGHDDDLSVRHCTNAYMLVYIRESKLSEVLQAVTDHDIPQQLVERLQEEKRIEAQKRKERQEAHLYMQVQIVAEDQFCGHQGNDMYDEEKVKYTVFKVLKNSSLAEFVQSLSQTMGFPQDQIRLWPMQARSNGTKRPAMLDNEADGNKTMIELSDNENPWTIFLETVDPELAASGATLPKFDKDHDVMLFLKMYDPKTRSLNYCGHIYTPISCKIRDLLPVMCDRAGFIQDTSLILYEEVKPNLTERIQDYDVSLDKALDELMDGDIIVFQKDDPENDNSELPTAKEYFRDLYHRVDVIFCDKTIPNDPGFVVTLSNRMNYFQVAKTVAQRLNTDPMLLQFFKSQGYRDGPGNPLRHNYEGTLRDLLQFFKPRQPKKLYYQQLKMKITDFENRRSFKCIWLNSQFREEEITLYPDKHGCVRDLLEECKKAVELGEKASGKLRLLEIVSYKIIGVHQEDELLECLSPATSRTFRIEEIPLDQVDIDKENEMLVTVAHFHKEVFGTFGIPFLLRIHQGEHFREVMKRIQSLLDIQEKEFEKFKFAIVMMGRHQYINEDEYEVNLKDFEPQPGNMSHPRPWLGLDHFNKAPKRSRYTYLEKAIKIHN

binding: binds
Substance: Ubiquitin-specific protease 7 (USP7), endogenous (from UniProt Q93009 1-1102) (enzyme)

From article PMC10464189
